# Reference: PubChem BioAssay AID504834 (National Center for Advancing Translational Sciences (NCATS), 2011)
# Among all 320,000 compounds or so, about 22,000 (6.9%) were called active. Inconclusive results, whose numbers are uncertain, are shown with a selection of clear calls. Calls come from the whole dose curve; as a rule, active = well fitted inhibition curve with a large enough effect; inconclusive = small, poorly fitted or top-dose-only effect, or another doubt; inactive = no such curve, though single readings can be large or run the other way. Where the call is inconclusive, the potency comes from a doubtful curve fit.
# Test: Primary qHTS for delayed death inhibitors of the malarial parasite plastid, 96 hour incubation
# Details: P. falciparum luciferase reporter growth; series mostly up to 28.7 µM; activity change, negative = inhibition: at the top concentration
# Procedure, shortened: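 Readout is luminescence from an integrated firefly luciferase in P. falciparum. Red cells, 2% hematocrit and 0.05% parasitemia final, were cultured with compound through two parasite generations (96 hours) at 37 C, 5% CO2.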
# % is set by controls: 0 for no effect and ±100 for the full control effect; potency is the fitted concentration of half-maximal effect.
Compound,Potency,"activity change, negative = inhibition"
CCOC(=O)C(C(=O)OCC)C(C)(C)/C(C)=N\Nc1ccc([N+](=O)[O-])cc1[N+](=O)[O-],"inconclusive: 9.28 µM [inhibitor, partial curve]",–
Cc1ccc(C)c(N=Nc2ccc(O)c3ncccc23)c1,"inconclusive: 14.7 µM [inhibitor, single point]",–
S=C(N/N=C/c1ccccc1)N1CCOCC1,"inconclusive: 18.5 µM [inhibitor, single point]",–
CCN1CCN(c2ccc(S(=O)(=O)N3CCCCC3)cc2NC(=O)CC(NC(C)=O)c2ccccc2)CC1 (stereo not given),"inconclusive: 8.28 µM [inhibitor, partial curve, poor fit]",–
CC(=O)N1CCc2cc(S(=O)(=O)NC(CC(C)C)C(=O)N3CCCC3)ccc21 (stereo not given),active: 11.7 µM,–
CCCN[C@@H](C)C(=O)Nc1c(C)csc1C(=O)OC,–,inactive: 9.01% [at 12.8 µM]
O=C(Cc1cccs1)Nc1ccccc1C(=O)O,–,inactive: -0.908%
COc1ccc(-c2csc(N(CCCN(C)C)C(=O)c3cc(OC)c(OC)c(OC)c3)n2)cc1,"inconclusive: 11.7 µM [inhibitor, single point]",–
COc1cccc(C(=O)C2CCCN(Cc3cccc(OCCO)c3)C2)c1 (stereo not given),active: 4.65 µM,–
Cc1nnc2ccc(-c3ccc(NC(=O)c4ccco4)cc3)nn12,"inconclusive: 13.1 µM [inhibitor, single point]",–
CSc1nsc(SC)c1NC(=O)OCc1ccccc1,"inconclusive: 1.04 µM [inhibitor, partial curve, poor fit]",–
Cc1c(OCC(=O)N2CCC(C(N)=O)CC2)ccc2c1oc(=O)c1ccccc12,"inconclusive: 0.329 µM [inhibitor, full curve, poor fit]",–
O=C(CSc1nnnn1-c1ccc(F)cc1)c1ccc(O)c(O)c1,"inconclusive: 13.1 µM [inhibitor, single point]",–
CCc1ccc2oc(C(=O)NCc3ccncc3)c(C)c2c1,"inconclusive: 9.28 µM [inhibitor, single point]",–
O=C1CCCc2nc(N3CCCCC3)sc21,–,inactive: -19.6%
CCN1C(=O)[C@@H]2[C@@H](c3ccc(-c4cccc(Cl)c4)cc3)N3CCC[C@@]3(C(=O)OC)[C@@H]2C1=O,active: 8.28 µM,–
Cc1ccn(CCC(=O)Nc2ccc(-c3ccno3)cc2)n1,"inconclusive: 20.8 µM [inhibitor, partial curve, poor fit]",–
Cc1ccc(C)c(C(=O)CN2Cc3ccccc3C2=O)c1,–,inactive: 39.2%
COc1ccccc1/C=C1\Oc2cc(OC(=O)N3CCOCC3)ccc2C1=O,–,inactive: 1.28%
Cc1cc(C)c2nc(NC(=O)c3ccco3)sc2c1,–,inactive: 288%
N#CC1=C2SCN(c3ccccc3)CN2C(=O)CC1c1ccccc1Cl (stereo not given),"inconclusive: 10.4 µM [inhibitor, single point]",–
CC(C)(C)OC(=O)[C@H](Cc1ccccc1)NC(=O)c1[nH]cnc1C(=O)Nc1ccc(Cl)cc1,"inconclusive: 18.5 µM [inhibitor, single point]",–
Cn1c(SCC(=O)Nc2ccc3c(c2)OCCO3)nnc1C1CC1,"inconclusive: 14.7 µM [inhibitor, single point]",–
FC(F)(F)c1ccncc1-c1nnnn1-c1ccc(Cl)cc1,"inconclusive: 14.7 µM [inhibitor, partial curve, poor fit]",–
CC(=O)Oc1cccc(Nc2ncnc3ccccc23)c1,–,inactive: 39.2%

Compound,Potency,"activity change, negative = inhibition"
COc1cc(/C=C/C(=O)NC(=O)c2ccccc2O)ccc1O,–,inactive: -7.09%
COc1cccc(COC(=O)C2CCN(C(=O)c3ccc(F)cc3)CC2)c1OC,–,inactive: -0.588%
Cc1ccc(N=Nc2ccc(O)c3ncccc23)cc1C,"inconclusive: 9.28 µM [inhibitor, partial curve, poor fit]",–
O=C(NC1Cc2ccccc2C1)c1cc(COc2ccc(F)cc2Cl)on1,"inconclusive: 18.5 µM [inhibitor, single point]",–
COc1cc(CCCN2C(=S)NC[C@@H]2CC2CCCCC2)cc(OC)c1OC,"inconclusive: 9.28 µM [inhibitor, partial curve]",–
CCN(C(=O)Cn1c(=O)n(Cc2ccccc2)c(=O)c2ccccc21)c1cccc(C)c1,–,inactive: 33.5%
COC(=O)C(CC(C)C)NC(=O)c1ccc(F)cc1 (stereo not given),"inconclusive: 18.5 µM [inhibitor, single point]",–
COc1ccc(CCn2c(C)cc(C(=O)CSc3nc(N)cc(=O)[nH]3)c2C)cc1,active: 9.28 µM,–
COc1ccc(-n2cc(CNCc3cccnc3)c(-c3cccc(F)c3)n2)cc1,"inconclusive: 11.7 µM [inhibitor, single point]",–
CCCCCCCCNC(CO)(CO)CO,–,inactive: 32.4%
Cc1c(C)n(C)c2ccc(C(=O)NCCCN3CCCC3)cc12,"inconclusive: 18.5 µM [inhibitor, single point]",–
Cc1cc(C)cc(OC(=O)c2cccnc2)c1,"inconclusive: 0.131 µM [inhibitor, single point]",–
O=C(/C=C/c1ccco1)Nc1ccc(C(=O)N2CCOCC2)cc1,active: 9.28 µM,–
Cc1[nH]c2ccccc2c1C(=O)C(C)Sc1nnc(C2CC2)o1 (stereo not given),active: 4.15 µM,–
Cc1ccccc1-c1nc(-c2ccc(NC(=O)c3cccs3)cc2)no1,–,inactive: 23.4%
CNc1nc(SC)nc(N(C)C#N)n1,–,inactive: -1.75%
N#Cc1c(SCC(=O)Nc2nncs2)sc2c(O)cc(=O)[nH]c12,"inconclusive: 14.7 µM [inhibitor, single point]",–
Cc1nc([N+](=O)[O-])c(Br)n1CC(=O)c1ccc(F)cc1,"inconclusive: 18.5 µM [inhibitor, single point]",–
CC1=NN(C(=O)COc2ccccc2C)C(O)(c2ccc(Cl)cc2)C1 (stereo not given),"inconclusive: 3.7 µM [inhibitor, partial curve, poor fit]",–
Cc1ccc(NC(=O)CC2S/C(=N/c3nccs3)N(C)C2=O)c(C)c1 (stereo not given),"inconclusive: 10.4 µM [inhibitor, partial curve]",–
CCN(c1ccccc1)S(=O)(=O)c1ccc(OC)c(NC(=O)C2CC(=O)N(Cc3ccccc3)C2)c1 (stereo not given),active: 13.1 µM,–
COc1ccc(CCNC[C@@H](O)c2ccc(O)cc2)cc1OC,–,inactive: -35.9%
CCSc1nc2sc3c(c2c(=O)n1-c1ccc(OC)cc1)CCN(C)C3,"inconclusive: 0.828 µM [inhibitor, full curve, poor fit]",–
Cc1cccc(NC(=O)CCCN2C(=O)C3CC=CCC3C2=O)c1 (stereo not given),–,inactive: 56.1%
Fc1cccc(CSc2nc3ncc(Cl)cc3[nH]2)c1,"inconclusive: 18.5 µM [inhibitor, partial curve, poor fit]",–

Compound,Potency,"activity change, negative = inhibition"
O=C(O)c1nn(Cc2ncc(-c3cccc(Cl)c3)o2)c(=O)c2ccccc12,–,inactive: 9.17%
CCOC(=O)C1(CCOC)CCN(C(C)CCc2ccc(OC)cc2)CC1 (stereo not given),"inconclusive: 18.5 µM [inhibitor, single point]",–
CCOCCCNC(=O)c1cn(CC(C)C)c(=O)c2cc(OC)c(OC)cc12,"inconclusive: 7.38 µM [inhibitor, partial curve, poor fit]",–
COc1cc(NC(=O)CSc2nnc3c(C)cc4c(C)ccc(C)c4n23)c(C(=O)O)cc1OC,–,inactive: 16.5%
COc1cc([N+](=O)[O-])ccc1NC(=O)COC(=O)CCS(=O)(=O)c1ccc(C)cc1,–,inactive: 34.2%
COc1ccccc1C(=O)Nc1nsc(-c2ccccc2)n1,–,inactive: -0.722%
C=CCCC(=O)NC1CC(C)(C)Cc2c1cnn2-c1ccc(OC)cc1 (stereo not given),"inconclusive: 6.57 µM [inhibitor, partial curve, poor fit]",–
CCOC(=O)C1CCCN(C(=O)C2CCCN(S(=O)(=O)c3ccc4c(c3)oc(=O)n4C)C2)C1 (stereo not given),"inconclusive: 13.1 µM [inhibitor, partial curve]",–
CC1Cc2ccccc2N1C(=O)CSc1ncccc1C(=O)O (stereo not given),"inconclusive: 6.57 µM [inhibitor, partial curve, poor fit]",–
CCn1c(NC(=O)c2ccccc2)c(-c2cccs2)c(=O)c2ccccc21,"inconclusive: 13.1 µM [inhibitor, single point]",–
CNC(=O)CN(Cc1ccccc1)S(=O)(=O)c1ccc(Cl)cc1,"inconclusive: 1.65 µM [inhibitor, partial curve, poor fit]",–
COc1ccccc1CNC(=O)c1oc2ccc(S(=O)(=O)N3CCOCC3)cc2c1C,–,inactive: 1.09%
CC(=O)N1CCc2c(sc(NC(=O)Cc3ccccc3)c2C#N)C1,–,inactive: 21.7%
Cc1ccc(S(=O)(=O)Nc2ccccc2CNc2ccccn2)cc1,active: 6.57 µM,–
C=CC[N+]1(C)CC[C@]23c4c5ccc(O)c4O[C@H]2C(=O)CC[C@@]3(O)[C@H]1C5 (stereo not given in full),–,inactive: -16.9%
O=S(=O)(Cc1ccccc1)N1CCC(N2CCN(c3ccccc3)CC2)CC1,"inconclusive: 2.94 µM [inhibitor, partial curve, poor fit]",–
CCCCC(=O)Nc1cccc(NC(=O)c2ccccc2Br)c1,–,inactive: 6.18%
COc1ccc(NC(=O)CC(C)C)c(OC)c1,–,inactive: 4.85%
CC(=O)NCCC(=O)N1CCCC(CNC(=O)c2ccc(-c3ccccc3)cc2)C1 (stereo not given),–,inactive: 0%
Cc1ccc(S(=O)(=O)NCc2csc(C)n2)cc1,"inconclusive: 4.65 µM [inhibitor, partial curve]",–
CCOc1ccc(CCNC(=O)COC(=O)/C=C/c2ccc(C)o2)cc1OCC,active: 5.22 µM,–
COc1cc(OC)nc(NC(=S)NC(=O)c2ccccc2)n1,–,inactive: 39.6%
COc1ccccc1NS(=O)(=O)c1ccc(C)c(NC(=O)C2CCCO2)c1 (stereo not given),–,inactive: -13%
O=C(O)CNC(=S)N(Cc1ccccc1Cl)C1CCCC1,"inconclusive: 18.5 µM [inhibitor, single point]",–
C[n+]1ccccc1/C=C/c1ccccc1Cl,"inconclusive: 4.15 µM [inhibitor, single point]",–

# In another format: 5 of the compounds above.
Compound | Potency | activity change, negative = inhibition
O=C(O)c1nn(Cc2ncc(-c3cccc(Cl)c3)o2)c(=O)c2ccccc12 | – | inactive: 9.17%
CNC(=O)CN(Cc1ccccc1)S(=O)(=O)c1ccc(Cl)cc1 | inconclusive: 1.65 µM [inhibitor, partial curve, poor fit] | –
COc1ccccc1CNC(=O)c1oc2ccc(S(=O)(=O)N3CCOCC3)cc2c1C | – | inactive: 1.09%
CCCCC(=O)Nc1cccc(NC(=O)c2ccccc2Br)c1 | – | inactive: 6.18%
CC(=O)NCCC(=O)N1CCCC(CNC(=O)c2ccc(-c3ccccc3)cc2)C1 (stereo not given) | – | inactive: 0%
